For one substance, binding results are on record in publication PMC3929491.

Chains of the proteins cited; added tags and fusions are not shown. Residues count along the entry.
UniProt P16070, residues 21-742: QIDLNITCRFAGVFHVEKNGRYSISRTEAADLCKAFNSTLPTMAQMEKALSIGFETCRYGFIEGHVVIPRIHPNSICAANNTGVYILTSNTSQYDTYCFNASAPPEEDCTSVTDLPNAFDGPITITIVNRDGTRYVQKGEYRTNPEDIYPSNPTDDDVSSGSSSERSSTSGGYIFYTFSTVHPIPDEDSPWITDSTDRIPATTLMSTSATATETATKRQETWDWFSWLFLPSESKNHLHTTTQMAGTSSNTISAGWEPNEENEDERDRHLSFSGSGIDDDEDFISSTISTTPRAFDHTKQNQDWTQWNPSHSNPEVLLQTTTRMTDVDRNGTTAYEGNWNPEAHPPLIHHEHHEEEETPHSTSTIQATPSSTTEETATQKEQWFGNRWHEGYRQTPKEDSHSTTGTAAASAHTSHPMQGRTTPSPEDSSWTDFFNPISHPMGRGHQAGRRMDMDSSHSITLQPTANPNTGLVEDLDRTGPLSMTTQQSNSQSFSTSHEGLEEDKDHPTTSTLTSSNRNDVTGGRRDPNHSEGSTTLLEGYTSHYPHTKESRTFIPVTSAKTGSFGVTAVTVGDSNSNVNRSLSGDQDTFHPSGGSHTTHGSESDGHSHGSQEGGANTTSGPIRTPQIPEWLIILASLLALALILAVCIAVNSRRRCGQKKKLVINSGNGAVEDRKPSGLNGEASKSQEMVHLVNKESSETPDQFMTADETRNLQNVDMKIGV
UniProt P29317, residues 24-976: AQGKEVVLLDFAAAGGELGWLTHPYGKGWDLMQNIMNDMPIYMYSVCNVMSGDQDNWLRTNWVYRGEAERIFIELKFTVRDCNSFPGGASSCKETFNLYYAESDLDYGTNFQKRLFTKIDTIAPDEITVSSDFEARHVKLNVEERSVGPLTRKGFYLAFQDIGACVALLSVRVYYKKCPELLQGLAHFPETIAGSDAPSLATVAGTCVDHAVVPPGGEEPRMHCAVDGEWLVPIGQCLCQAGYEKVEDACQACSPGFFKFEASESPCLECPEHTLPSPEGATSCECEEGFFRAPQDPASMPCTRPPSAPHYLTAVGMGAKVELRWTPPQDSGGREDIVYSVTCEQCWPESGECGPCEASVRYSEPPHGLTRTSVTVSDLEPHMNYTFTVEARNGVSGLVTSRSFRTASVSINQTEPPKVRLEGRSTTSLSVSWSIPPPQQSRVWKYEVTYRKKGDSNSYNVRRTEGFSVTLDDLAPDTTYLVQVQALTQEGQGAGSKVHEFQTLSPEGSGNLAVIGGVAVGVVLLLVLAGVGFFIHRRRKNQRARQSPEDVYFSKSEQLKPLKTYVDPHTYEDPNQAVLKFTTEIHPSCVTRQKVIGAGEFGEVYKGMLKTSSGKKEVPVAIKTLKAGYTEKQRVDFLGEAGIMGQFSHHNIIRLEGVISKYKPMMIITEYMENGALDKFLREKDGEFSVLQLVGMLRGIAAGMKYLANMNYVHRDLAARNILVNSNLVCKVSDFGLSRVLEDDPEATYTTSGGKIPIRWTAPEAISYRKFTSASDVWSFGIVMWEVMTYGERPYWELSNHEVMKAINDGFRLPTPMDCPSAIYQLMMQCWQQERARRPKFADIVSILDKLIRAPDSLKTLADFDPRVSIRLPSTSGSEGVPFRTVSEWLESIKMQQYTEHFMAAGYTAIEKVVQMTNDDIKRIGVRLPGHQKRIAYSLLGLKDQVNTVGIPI

This assay has as its target CD44 (human (endogenous in HCC38)) (UniProt P16070). Kind of assay: co-IP; HCC38 lysate (100 mM Tris-HCl pH 7.5, 1% Brij35, 0.14 M NaCl, 1 mM CaCl2, 1 mM MnCl2), precleared, immunoprecipitated with anti-CD44 (clone 156-3C11)-protein G beads or control IgG beads, 4 h at 4°C; blot with anti-EphA2.

Results are given in words; binding and its absence hold for the method and conditions named. In cells and extracts the contact can be indirect. Some entries that bind do so weakly or less than the wild type.

With “EphA2 (from UniProt P29317 24-976) (receptor)”, the binding entry is reported as “binds”.
